Test results taken from article PMC4911916.

Sequences of proteins named here, by UniProt entry; tags and fusion partners are left off. A change or cut given only in a name is not applied to a line headed by its entry.
UniProt Q9UKV8: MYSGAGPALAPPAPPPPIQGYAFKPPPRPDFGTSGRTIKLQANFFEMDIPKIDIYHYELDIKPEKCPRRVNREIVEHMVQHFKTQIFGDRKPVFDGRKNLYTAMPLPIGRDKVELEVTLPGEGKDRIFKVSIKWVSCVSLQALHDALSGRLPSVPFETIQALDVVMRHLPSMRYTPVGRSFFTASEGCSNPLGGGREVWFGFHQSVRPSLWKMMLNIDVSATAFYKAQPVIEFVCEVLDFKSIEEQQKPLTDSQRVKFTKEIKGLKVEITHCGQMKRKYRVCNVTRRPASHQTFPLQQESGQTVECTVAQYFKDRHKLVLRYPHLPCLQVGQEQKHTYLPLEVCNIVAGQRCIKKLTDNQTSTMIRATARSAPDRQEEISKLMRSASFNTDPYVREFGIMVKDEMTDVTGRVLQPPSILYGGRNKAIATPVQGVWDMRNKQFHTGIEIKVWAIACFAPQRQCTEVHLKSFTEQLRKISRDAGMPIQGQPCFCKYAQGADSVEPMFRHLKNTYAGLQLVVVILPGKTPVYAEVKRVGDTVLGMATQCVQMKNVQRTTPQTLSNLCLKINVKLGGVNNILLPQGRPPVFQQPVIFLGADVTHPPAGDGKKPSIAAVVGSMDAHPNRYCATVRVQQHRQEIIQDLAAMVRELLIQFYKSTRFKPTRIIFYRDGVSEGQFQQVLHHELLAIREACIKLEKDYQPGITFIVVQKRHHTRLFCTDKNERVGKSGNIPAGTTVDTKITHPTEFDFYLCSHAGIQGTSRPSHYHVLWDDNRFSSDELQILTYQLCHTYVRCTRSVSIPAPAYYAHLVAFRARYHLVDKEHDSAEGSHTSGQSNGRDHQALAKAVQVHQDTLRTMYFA

Key:
[1] = target: endogenous Argonaute 2 (AGO2) (human (endogenous in T47D)), Q9UKV8; assay: affinity purification with mass spectrometry; anti-AGO2 antibody (cross-linked to resin) IP of endogenous AGO2 from T47D cytoplasmic extract, no RNase; overnight 4°C; 6 washes in IP300 buffer (300 mM NaCl, 0.05% NP-40); control: mouse IgG resin; LC/MS/MS, SINQ; conditions: remark: other sources report otherwise
[2] = target: Flag-HA-tagged AGO2 (human), Q9UKV8; assay: affinity purification with mass spectrometry; anti-Flag resin IP of Flag-AGO2 from cytoplasmic extract of the stable T47D line, treated with RNase (TurboNuclease 1:10,000, 30 min, room temperature); 6 washes in IP300 buffer; control: Flag IP from T47D extract; LC/MS/MS, SINQ; conditions: remark: other sources report otherwise
[3] = target: Flag-HA-tagged AGO2 (human), Q9UKV8; assay: affinity purification with mass spectrometry; anti-Flag resin IP of Flag-AGO2 from cytoplasmic extract of the stable T47D line, no RNase; overnight 4°C; 6 washes in IP300 buffer (300 mM NaCl, 0.05% NP-40); control: Flag IP from T47D extract; LC/MS/MS, SINQ; conditions: remark: other sources report otherwise
[4] = target: Flag-HA-tagged AGO2 (human) (UniProt Q9UKV8); assay: affinity purification with mass spectrometry; anti-Flag resin IP of Flag-AGO2 from nuclear extract of the stable T47D line, treated with RNase (TurboNuclease); 6 washes in IP300 buffer; control: Flag IP from T47D extract; LC/MS/MS, SINQ
[5] = target: endogenous Argonaute 2 (AGO2) (human (endogenous in T47D)) (UniProt Q9UKV8); assay: affinity purification with mass spectrometry; anti-AGO2 antibody IP of endogenous AGO2 from T47D nuclear extract, no RNase (DNase added); 6 washes in IP300 buffer; control: mouse IgG resin; LC/MS/MS, SINQ
[6] = target: Flag-HA-tagged AGO2 (human) (UniProt Q9UKV8); assay: affinity purification with mass spectrometry; anti-Flag resin IP of Flag-AGO2 from nuclear extract of the stable T47D line, no RNase (DNase added); 6 washes in IP300 buffer; control: Flag IP from T47D extract; LC/MS/MS, SINQ
[7] = target: endogenous Argonaute 2 (AGO2) (human (endogenous in T47D)) (UniProt Q9UKV8); assay: affinity purification with mass spectrometry; anti-AGO2 antibody IP of endogenous AGO2 from T47D nuclear extract, treated with RNase (TurboNuclease); 6 washes in IP300 buffer; control: mouse IgG resin; LC/MS/MS, SINQ

Row | Binder | binding [1] | binding [2] | binding [3] | binding [4] | binding [5] | binding [6] | binding [7]
1 | TAR RNA binding protein (TRBP), Q15633-1 1-366 (protein) MSEEEQGSGTTTGCGLPSIEQMLAANPGKTPISLLQEYGTRIGKTPVYDLLKAEGQAHQPNFTFRVTVGDTSCTGQGPSKKAAKHKAAEVALKHLKGGSMLEPALEDSSSFSPLDSSLPEDIPVFTAAAAATPVPSVVLTRSPPMELQPPVSPQQSECNPVGALQELVVQKGWRLPEYTVTQESGPAHRKEFTMTCRVERFIEIGSGTSKKLAKRNAAAKMLLRVHTVPLDARDGNEVEPDDDHFSIGVGSRLDGLRNRGPGCTWDSLRNSVGEKILSLRSCSLGSLGALGPACCRVLSELSEEQAFHVSYLDIEELSLSGLCQCLVELSTQPATVCHGSATTREAARGEAARRALQYLKIMAGSK | binds | binds | binds | – | – | – | –
2 | PEG10 (protein, UniProt Q86TG7 1-708) MTERRRDELSEEINNLREKVMKQSEENNNLQSQVQKLTEENTTLREQVEPTPEDEDDDIELRGAAAAAAPPPPIEEECPEDLPEKFDGNPDMLAPFMAQCQIFMEKSTRDFSVDRVRVCFVTSMMTGRAARWASAKLERSHYLMHNYPAFMMEMKHVFEDPQRREVAKRKIRRLRQGMGSVIDYSNAFQMIAQDLDWNEPALIDQYHEGLSDHIQEELSHLEVAKSLSALIGQCIHIERRLARAAAARKPRSPPRALVLPHIASHHQVDPTEPVGGARMRLTQEEKERRRKLNLCLYCGTGGHYADNCPAKASKSSPAGKLPGPAVEGPSATGPEIIRSPQDDASSPHLQVMLQIHLPGRHTLFVRAMIDSGASGNFIDHEYVAQNGIPLRIKDWPILVEAIDGRPIASGPVVHETHDLIVDLGDHREVLSFDVTQSPFFPVVLGVRWLSTHDPNITWSTRSIVFDSEYCRYHCRMYSPIPPSLPPPAPQPPLYYPVDGYRVYQPVRYYYVQNVYTPVDEHVYPDHRLVDPHIEMIPGAHSIPSGHVYSLSEPEMAALRDFVARNVKDGLITPTIAPNGAQVLQVKRGWKLQVSYDCRAPNNFTIQNQYPRLSIPNLEDQAHLATYTEFVPQIPGYQTYPTYAAYPTYPVGFAWYPVGRDGQGRSLYVPVMITWNPHWYRQPPVPQYPPPQPPPPPPPPPPPPSYSTL | – | – | – | binds | – | – | –
3 | TAR RNA binding protein (TRBP) (protein, UniProt Q15633-1 1-366) MSEEEQGSGTTTGCGLPSIEQMLAANPGKTPISLLQEYGTRIGKTPVYDLLKAEGQAHQPNFTFRVTVGDTSCTGQGPSKKAAKHKAAEVALKHLKGGSMLEPALEDSSSFSPLDSSLPEDIPVFTAAAAATPVPSVVLTRSPPMELQPPVSPQQSECNPVGALQELVVQKGWRLPEYTVTQESGPAHRKEFTMTCRVERFIEIGSGTSKKLAKRNAAAKMLLRVHTVPLDARDGNEVEPDDDHFSIGVGSRLDGLRNRGPGCTWDSLRNSVGEKILSLRSCSLGSLGALGPACCRVLSELSEEQAFHVSYLDIEELSLSGLCQCLVELSTQPATVCHGSATTREAARGEAARRALQYLKIMAGSK | – | – | – | no binding (only in nuclear extract) | no binding (only in nuclear extract) | no binding (only in nuclear extract) | no binding (only in nuclear extract)

These are yes or no findings as the source states them, for the method shown. Binding seen in cells or lysates may run through a third protein. Here binding means that the protein was enriched with, or labelled near, the bait; the list need not be complete. For some assays here: A no says only that the protein was not detected with the bait.
